Laboratory results taken from PubChem BioAssay AID1347423 (Functional Genomics Laboratory (NCATS/FGL), 2020).
In all, about 52,000 sequences went through this assay and about 210 (0.4%) were called active.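 Rule for the calls: active = gene whose silencing raises cell survival under the drug, median off-target-corrected z-score across its silencing RNAs 2 or more; inactive = the rest.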 The list shows a part of the results.

Assay: Resistance to Poly (ADP-Ribose) Polymerase inhibitor: Gene Identification via Genome-wide siRNA Screen
Details: mouse BRCA2 R2336H ES cells, olaparib, CellTiter-Glo viability; hits give high values
In short: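 Mouse BRCA2 R2336H ES cells were reverse-transfected with siRNA (20 nM final), treated at 48 h with 500 nM olaparib, and read by CellTiter-Glo after 72 h. Scores: MAD-based z per siRNA, median per gene, seed off-target correction.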

Sequence | z-score
GGAAAUGAGCCAGGAUGGUTT against Cdca4 | inactive: 0.36
GGUUCUCCAUACUUAUGCCTT against G630042G04 | inactive: 0.393
GCCAAGAUGUGGCAACCCATT against Mmp2 | inactive: 0.64
GGAGUUCCUCACACUAAUCTT against Gch1 | inactive: 1.64
GCAAGCUAUUCCACCAUUGTT against 9830002I17Rik | inactive: -0.923
GGGUCCCUAAGCAUGUUCCTT against Slfn10 | inactive: 1.48
GCUGAACAAACCCACCGGUTT against Ppox | inactive: 0.81
GCUGCUACUCUGGAGAAGCTT against Fcrlm2 | inactive: 0.566
GUCCUUCUCAUCAUGGGACTT against Sec61g | inactive: -0.199
GGAAUCUUCCACAAGCUGUTT against Papolb | inactive: 1.06
GGAUUGUUGAAAGAAACAUTT against Mrpl32 | inactive: -0.639
CCAUUCUCUUUACCUCAAUTT against Rdh12 | inactive: -0.0664
GCCCUCUUAGGAGUGAUUATT against Zfp219 | inactive: 2.02
CCAAGGGUCACCUAUUUUUTT against Kcna5 | inactive: -1.84
CAAGACUAUUUGGCCUGAGTT against Gbx1 | inactive: -3.07
GGCUGGAGAAAAUGAUGAATT against Rwdd1 | inactive: 0.719
GGAAGAGAUGAAGAAAAUGTT against Cetn1 | inactive: 0.507
GGUGUGCCCUAUGAAUCGATT against Itpr2 | inactive: 2.26
GGACUUUCUUCCAUCAAAUTT against Ick | inactive: 0.573
GGACUCUCUGAAUAACAACTT against Mapk8ip2 | inactive: -1.29
GGGAACCAGAAUUCACAAATT against Trp53inp2 | inactive: 0.597
GCUAGAGGUGACUGAUGUCTT against 2610036D13Rik | inactive: -1.98

Sequence | z-score
GGACAAAAGAUUCUUCAUCTT against Mtap1b | inactive: 0.839
GGAAUCUGCACCAUUUUCCTT against Lrrc28 | inactive: 0.791
GGACAACUAUGGGACAGAGTT against LOC626846 | inactive: -1.3
GGCAAAAGGGACAAAAACUTT against Gadd45a | inactive: 1.19
CCUAUAGCUUGGUAACAGGTT against Gnb1l | inactive: 0.328
GGGAUAUCUCGCUUCUAUATT against 2610003J06Rik | inactive: 0.108
GCGAGACCGUUCAAUAAAGTT against Gnefr | inactive: 0.232
GGUUCUUUCCUUGUUUUACTT against Olfr448 | inactive: 0.113
GGACUCCUAAGUGUAACAGTT against 9130221H12Rik | inactive: -1.04
GGUGCUGAACUACAUGUACTT against Zfp161 | inactive: 0.846
GCUGUGUUAGAAAGCAGGCTT against 4931406H21Rik | inactive: 0.698
GGCUAACCGAAGCCAUCCUTT against Wbp5 | inactive: -0.825
GGCAGUCUGUCAGAUCAAUTT against 4932411G14Rik | inactive: -1.08
GCACUAUGUGGAGAGAUUGTT against Esrrb | inactive: 0.946
GGAUUUUAAACAAAAGACCTT against Stard13 | inactive: -1.05
GGAAUUCAUGAAGACUUGGTT against Calb1 | inactive: 0.0977
GAGACACUUGUGCUGUAGGTT against F730035P03Rik | inactive: 0.243
AUGGAGUCCUACAUUCUAGTT against LOC432582 | inactive: -0.964
GGAGGUCUACAUUUAUUAATT against 2500002K03Rik | inactive: -0.962
GGUAAUGUGCAACACUGUGTT against Zfp13 | inactive: -0.189
GGAAGCUAGAUUUUGAGUATT against V1re11 | inactive: 0.539
GGUGUUUCCAAUUAGGAAATT against Gjb1 | inactive: 1.54

Sequence | z-score
GGGCCUUCAAAACGAGAAGTT against 4732474A20Rik | inactive: -1.22
GGUUAGUAGUCUUCUUAUCTT against Olfr1173 | inactive: 1.32
GGAGAAAAUAGAGACUCAATT against Scg2 | inactive: 1.49
GGUUCUAUUACAAGAAAGGTT against Enpp6 | inactive: 1.05
CUGUUACCUAUCCCUCAUCTT against Sstr3 | inactive: -0.647
GGAGCUAAAAGAGAUCAACTT against Bicd2 | inactive: -0.649
GGUUUAGAUGAUUUCUUCCTT against Ap3m1 | inactive: -0.189
GGAGAAGCUGAAAUUUCUGTT against Tesc | inactive: -0.75
GGUUGUCGCCAGAAUCAAGTT against Slc9a3r2 | inactive: 0.752
GGACUCUUUUGGACCUAAGTT against 2310016C08Rik | inactive: 0.828
CCCAUUUAAAUACAUACGATT against Ly9 | inactive: 1.31
GAGAGUAUCACCUUCAUUUTT against 1810019J16Rik | inactive: -1.72
GGUCACAGAAUGAAUGACUTT against Prss25 | inactive: 0.368
GCCCUCUGAUAUGUUGAACTT against Ppil5 | inactive: 1.06
GCAAGUCAUAACGAGGACUTT against 2310005E10Rik | inactive: -0.854
GGUGAAACUGGAAGAUUCUTT against 6030413G23Rik | inactive: 1.14
GGGCAAGACUUAAUUUUGGTT against Dppa1 | inactive: 0.482
GGAAAGUUGAUAGAAAGUGTT against D19Ertd386e | inactive: -0.602
GGAUGACUGUUAUUUUUGUTT against Sema4g | inactive: -0.237
CGUGUAUCAUCUCAAGUGUTT against Lmo4 | inactive: 0.364
GGUUGCUUCAUUGAUGUAUTT against Olfr867 | inactive: -0.825
GGAGUAGAAGAAGAGGAGUTT against Mrpl50 | inactive: -0.751
